Article PMC4691155
These are yes or no findings as the source states them, for the method shown. In cells and extracts the contact can be indirect. Some binding calls cover weakened binding; strength is not graded here.

By UniProt entry, the sequences of proteins in these tests, tags left out.
UniProt Q95115: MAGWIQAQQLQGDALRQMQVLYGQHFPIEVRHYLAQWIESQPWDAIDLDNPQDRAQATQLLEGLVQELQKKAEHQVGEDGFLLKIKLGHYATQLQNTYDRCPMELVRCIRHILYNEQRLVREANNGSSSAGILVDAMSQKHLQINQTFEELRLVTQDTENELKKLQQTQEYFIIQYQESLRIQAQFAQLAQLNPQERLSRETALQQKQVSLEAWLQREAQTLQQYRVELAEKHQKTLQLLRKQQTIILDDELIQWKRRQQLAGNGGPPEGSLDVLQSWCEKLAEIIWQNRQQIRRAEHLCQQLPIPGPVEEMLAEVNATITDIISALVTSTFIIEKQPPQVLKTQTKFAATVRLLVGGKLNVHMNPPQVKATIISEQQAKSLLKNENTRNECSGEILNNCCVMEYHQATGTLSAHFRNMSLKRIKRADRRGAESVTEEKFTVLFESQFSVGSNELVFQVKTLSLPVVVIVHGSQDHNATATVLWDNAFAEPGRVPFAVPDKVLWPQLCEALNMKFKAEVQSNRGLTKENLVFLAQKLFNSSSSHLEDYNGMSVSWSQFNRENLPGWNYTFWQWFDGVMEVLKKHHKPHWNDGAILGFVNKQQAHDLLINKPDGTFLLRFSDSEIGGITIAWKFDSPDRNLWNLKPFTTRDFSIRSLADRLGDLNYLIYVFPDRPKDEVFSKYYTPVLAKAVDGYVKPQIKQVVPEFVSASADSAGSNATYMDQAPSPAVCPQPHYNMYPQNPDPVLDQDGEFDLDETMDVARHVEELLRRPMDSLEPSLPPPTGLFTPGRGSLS

Biological target: T1, Tudor staphylococcal nuclease (Tudor-SN) (bovine (endogenous in BMEC)) (UniProt Q863B3)
T1 sequence: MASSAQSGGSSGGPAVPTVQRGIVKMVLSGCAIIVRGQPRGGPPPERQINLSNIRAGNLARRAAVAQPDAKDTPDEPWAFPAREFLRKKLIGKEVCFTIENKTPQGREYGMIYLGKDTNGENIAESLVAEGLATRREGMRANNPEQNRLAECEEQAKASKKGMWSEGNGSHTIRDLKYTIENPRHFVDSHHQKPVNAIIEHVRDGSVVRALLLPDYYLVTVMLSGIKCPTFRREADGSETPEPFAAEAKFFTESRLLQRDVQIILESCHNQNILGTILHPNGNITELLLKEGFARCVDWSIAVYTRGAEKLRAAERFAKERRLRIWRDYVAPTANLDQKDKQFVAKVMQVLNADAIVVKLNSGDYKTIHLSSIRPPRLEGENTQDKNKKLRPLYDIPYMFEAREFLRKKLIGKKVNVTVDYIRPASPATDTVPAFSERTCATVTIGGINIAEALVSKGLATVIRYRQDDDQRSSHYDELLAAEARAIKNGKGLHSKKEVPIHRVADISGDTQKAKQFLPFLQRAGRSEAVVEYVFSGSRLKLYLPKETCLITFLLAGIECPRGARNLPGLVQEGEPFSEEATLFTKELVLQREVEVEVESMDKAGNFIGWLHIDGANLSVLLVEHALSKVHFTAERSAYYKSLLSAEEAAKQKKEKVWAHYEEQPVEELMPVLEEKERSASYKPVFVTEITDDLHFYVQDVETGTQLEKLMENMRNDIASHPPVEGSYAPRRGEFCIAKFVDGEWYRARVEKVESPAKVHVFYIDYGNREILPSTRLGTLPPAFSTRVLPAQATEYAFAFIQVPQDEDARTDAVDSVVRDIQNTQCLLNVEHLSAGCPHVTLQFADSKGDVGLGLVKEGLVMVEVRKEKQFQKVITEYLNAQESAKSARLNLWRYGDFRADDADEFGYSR
Experiment: co-IP; 200 ug nuclear protein lysate of BMEC on columns with 20 ug immobilised Tudor-SN antibody (Pierce Co-IP kit), overnight at 4 °C; blot for p-Stat5; control preimmune IgG; cells untreated or stimulated 24 h with Met (0.6 mmol/L) or estrogen (2.72 x 10^-2 ug/mL), interaction enhanced by Met and E

For “p-Stat5 (phosphorylated signal transducer and activator of transcription 5) (from UniProt Q95115 1-794)”, the binding was “binds”.
